Values from PubChem BioAssay AID1508588 (Peter MacCallum Cancer Centre, 2020)
Shown is one part, drawn at random, of about 18,000 deposited reagents. Over the whole deposit, 790 (4.4%) were called active. 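Calls rest on a combination of fold-change classes in drug and vehicle arms, not all shown here.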 A number with no mark means an inactive call.

Aim: 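Which gene losses make BRAF-mutant melanoma cells more responsive to vemurafenib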 (primary screen)
Cells: human WM266.4 melanoma cells (BRAF V600 mutant)
Reagent: siRNA pool against human genes, 40 nM
Duration: 96 h from transfection to read-out
Conditions: vemurafenib 300 nM (about IC25), added 48 h after transfection, for 48 h; comparison arm got DMSO vehicle only
Read-out: 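Cell gain (DAPI nuclei at end minus before drug, mean of two replicates) and medium lactate by absorbance per cell, both as ratio to non-targeting siRNA, also grouped into fold-change classes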
Reading the numbers: cell gain with vemurafenib: higher = more cell gain than with non-targeting siRNA; lactate per cell with vemurafenib: higher = more lactate made per cell
Call rule: 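Enhancement is called by pairing each knock-down's vehicle-arm and drug-arm fold-change classes for viability or glycolysis; which class combinations qualify is not given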
Calls: active = enhances vemurafenib effect; inactive = no enhancement seen

{"gene": "CYSLTR2", "cell gain with vemurafenib": 0.39, "lactate per cell with vemurafenib": 0.9}
{"gene": "ELMO2", "cell gain with vemurafenib": "0.22 (active)", "lactate per cell with vemurafenib": 0.3}
{"gene": "VAMP2", "cell gain with vemurafenib": 0.66, "lactate per cell with vemurafenib": 1.44}
{"gene": "COX7A2", "cell gain with vemurafenib": 0.5, "lactate per cell with vemurafenib": 0.84}
{"gene": "SLC7A7", "cell gain with vemurafenib": 0.57, "lactate per cell with vemurafenib": 0.8}
{"gene": "CNPY2", "cell gain with vemurafenib": 0.81, "lactate per cell with vemurafenib": 0.72}
{"gene": "PCDH19", "cell gain with vemurafenib": "0.49 (active)", "lactate per cell with vemurafenib": 0.45}
{"gene": "SLC6A8", "cell gain with vemurafenib": 0.52, "lactate per cell with vemurafenib": 1.14}
{"gene": "LSMEM2", "cell gain with vemurafenib": 0.67, "lactate per cell with vemurafenib": 0.8}
{"gene": "LRRC4", "cell gain with vemurafenib": 0.3, "lactate per cell with vemurafenib": 1.13}
{"gene": "ZAR1", "cell gain with vemurafenib": 0.49, "lactate per cell with vemurafenib": 1.02}
{"gene": "PLCD1", "cell gain with vemurafenib": 0.63, "lactate per cell with vemurafenib": 0.78}
{"gene": "OR6B2", "cell gain with vemurafenib": 0.66, "lactate per cell with vemurafenib": 0.6}
{"gene": "GAST", "cell gain with vemurafenib": 0.65, "lactate per cell with vemurafenib": 0.66}
{"gene": "CFAP54", "cell gain with vemurafenib": 0.87, "lactate per cell with vemurafenib": 0.76}
{"gene": "PDHA2", "cell gain with vemurafenib": 0.54, "lactate per cell with vemurafenib": 1.3}
{"gene": "ARAP3", "cell gain with vemurafenib": 0.28, "lactate per cell with vemurafenib": 1.86}
{"gene": "ZNF70", "cell gain with vemurafenib": 0.26, "lactate per cell with vemurafenib": 0.51}
{"gene": "TAS2R41", "cell gain with vemurafenib": 0.49, "lactate per cell with vemurafenib": 1.47}
{"gene": "NUDT13", "cell gain with vemurafenib": 0.65, "lactate per cell with vemurafenib": 0.38}
{"gene": "CLPTM1L", "cell gain with vemurafenib": 0.37, "lactate per cell with vemurafenib": 1.15}
{"gene": "TBL1Y", "cell gain with vemurafenib": "0.31 (active)", "lactate per cell with vemurafenib": 0.16}
{"gene": "BMAL1", "cell gain with vemurafenib": 0.17, "lactate per cell with vemurafenib": 0.99}
{"gene": "CCDC86", "cell gain with vemurafenib": 0.63, "lactate per cell with vemurafenib": 1.21}
{"gene": "METTL2A", "cell gain with vemurafenib": 0.37, "lactate per cell with vemurafenib": 2.1}
{"gene": "MAU2", "cell gain with vemurafenib": 0.17, "lactate per cell with vemurafenib": 2.02}
{"gene": "ATOH1", "cell gain with vemurafenib": 1.14, "lactate per cell with vemurafenib": 1.02}
{"gene": "FSCN1", "cell gain with vemurafenib": 0.55, "lactate per cell with vemurafenib": 1.25}
{"gene": "PPIC", "cell gain with vemurafenib": 0.44, "lactate per cell with vemurafenib": 0.86}
{"gene": "CLCF1", "cell gain with vemurafenib": 0.58, "lactate per cell with vemurafenib": 0.78}
{"gene": "MINK1", "cell gain with vemurafenib": 0.41, "lactate per cell with vemurafenib": 1}
{"gene": "MFN1", "cell gain with vemurafenib": 0.78, "lactate per cell with vemurafenib": 0.88}
{"gene": "PPA2", "cell gain with vemurafenib": 0.3, "lactate per cell with vemurafenib": 1.17}
{"gene": "XKR4", "cell gain with vemurafenib": 0.5, "lactate per cell with vemurafenib": 0.8}
{"gene": "PTPRN2", "cell gain with vemurafenib": 0.58, "lactate per cell with vemurafenib": 0.84}
{"gene": "AKR1C6P", "cell gain with vemurafenib": 0.55, "lactate per cell with vemurafenib": 0.9}
{"gene": "AQP1", "cell gain with vemurafenib": 0.39, "lactate per cell with vemurafenib": 0.68}
{"gene": "ISCA2", "cell gain with vemurafenib": 0.4, "lactate per cell with vemurafenib": 2.02}
{"gene": "ESX1", "cell gain with vemurafenib": 0.59, "lactate per cell with vemurafenib": 0.7}
{"gene": "QSOX2", "cell gain with vemurafenib": 0.66, "lactate per cell with vemurafenib": 0.34}

Entries listed so far whose target name starts with P or p (6):
{"gene": "PCDH19", "cell gain with vemurafenib": "0.49 (active)", "lactate per cell with vemurafenib": 0.45}
{"gene": "PLCD1", "cell gain with vemurafenib": 0.63, "lactate per cell with vemurafenib": 0.78}
{"gene": "PDHA2", "cell gain with vemurafenib": 0.54, "lactate per cell with vemurafenib": 1.3}
{"gene": "PPIC", "cell gain with vemurafenib": 0.44, "lactate per cell with vemurafenib": 0.86}
{"gene": "PPA2", "cell gain with vemurafenib": 0.3, "lactate per cell with vemurafenib": 1.17}
{"gene": "PTPRN2", "cell gain with vemurafenib": 0.58, "lactate per cell with vemurafenib": 0.84}
